Laboratory results reported in patent US20250387458A1, “COACTIVE COMBINATIONS OF ANTIMICROBIALS WITH DISPERSINB” (KANE BIOTECH INC., priority 2020, published 2025).
Counter-ions that a name gives are not always drawn. Positions of bridges follow the written chain, without caps; N, C: chain ends. Non-standard residues stand in square brackets, D forms with d. Residues, ends and D or L forms follow the SMILES beside them. ξ: configuration not given here. *: point of attachment. X1 = CC[C@H](C)CCCCC(=O)*; dDab = NCC[C@@H](N)C(=O)O; Dab = NCC[C@H](N)C(=O)O; ξDab = NCCC(N)C(=O)O

Legend:
DspB [1] = assay: Compatibility between antimicrobials or antibiotics and DspB, enzymatic assay in buffer (Method 4); format: biochemical, Aggregatibacter actinomycetemcomitans; conditions: 100 μg/mL DspB, antimicrobial concentration per figure legend
Procedure: Method 4: Method to Test Compatibility Between Antimicrobials or Antibiotics and DspB Using Enzymatic Assay
DspB (200 μg/mL) and antimicrobial agent/antibiotic stocks were prepared in respective buffers. 10 mM paranitrophenol (PNP) in 400 mM sodium carbonate, and the buffer (same DspB stock) was used as the standard solution, and negative control, respectively. DspB stock and antimicrobial stock were mixed in equal proportions, and then 4×5 μl samples were taken at defined time points (0, 5, 10, 20, 30, 60, and 120 min) and used to measure the DspB enzyme activity. DspB enzymatic activity was measured using β-N-Acetylglucosaminidase assay kit from Sigma (product code CS0780) in 96-well microtiter plate following the manufacturer's instructions. The plate was incubated for 30 minutes before terminating the reaction. Data analysis was done in Excel. Student T test (paired) was performed for each time point separately using DspB activity in mixture and in control sample as two set of variables.

S. epidermidis biofilm = assay: Compatibility between antimicrobials or antibiotics and DspB, biofilm dispersal assay in buffer (Method 3); format: cell-based, Staphylococcus epidermidis; conditions: mixture stored at 37° C., 20 μg/ml DspB, antimicrobial concentration per figure legend
Procedure: Method 3: Method to Test Compatibility Between Antimicrobials or Antibiotics and DspB Using Biofilm Dispersal Assay
S. epidermidis biofilm was grown in 96-well plate and washed three times using sterile water to remove planktonic cells. Antimicrobials or antibiotics and DspB formulations were prepared in 50 mM phosphate or citrate buffer and stored at 37° C. for 2 h and used for treating biofilm at 0 and 2 h. Biofilm was treated using antimicrobials or antibiotics and DspB formulations for 10 min. After treatments, solutions were removed and washed 3 times to remove dispersed biofilm. Remaining biofilms in 96-well plates were stained using Crystal violet, unbound crystal violet was removed by washing the wells with sterile water, the biofilm bound crystal violet was eluted using 33% acetic acid, and the absorbance at 620 nm was taken using a microwell plate reader. Percent biofilm removal was calculated. Data was analyzed using ANOVA and Tukey's test.

DspB [2] = assay: Compatibility between antimicrobials or antibiotics and DspB in gel, enzymatic assay (Method 6); format: biochemical, Aggregatibacter actinomycetemcomitans; conditions: PF127 wound gel, 100 μg/mL DspB
Procedure: Method 6: Method to Test Compatibility Between Antimicrobials or Antibiotics and DspB in Gel Using Enzymatic Assay
DspB gel containing 200 μg/ml DspB, 16% […] (PF127), 50 mM Phosphate buffer or citrate, 100 mM NaCl, pH 5.9, and 2× concentrated antimicrobial agent/antibiotics in 16% Poloxamer 405, 50 mM Phosphate buffer, 100 mM NaCl, pH 5.9 were mixed in equal proportions. 4×5 μL aliquots were withdrawn at 0, 5, 10, 20, 30, 60, and 120 min for measurement of DspB enzymatic activity. DspB enzymatic activity was measured using β-N-acetylglucosaminidase assay kit from Sigma (product code CS0780) in 96-well microtiter plate following the manufacturer's instructions. The plate was incubated for 30 minutes before terminating the reaction. Data analysis was done in Excel. Student T test (paired) was performed for each time point separately using DspB activity in mixture and in control sample as two set of variables. […]

CC[C@H](C)CCCCC(=O)N[C@@H](CCN)C(=O)N[C@H](C(=O)NC(CCN)C(=O)N[C@H]1CCNC(=O)[C@H]([C@@H](C)O)NC(=O)[C@H](CCN)NC(=O)[C@H](CCN)NC(=O)[C@H](CC(C)C)NC(=O)[C@@H](Cc2ccccc2)NC(=O)[C@@H](CCN)NC1=O)[C@@H](C)O (stereo partly drawn) [Polymyxin B sulfate] (X1-[Dab]T[ξDab][Dab][dDab][dF]L[Dab][Dab]T; lactam 4-C)
Time DspB was active in the presence of the antimicrobial, enzymatic assay (DspB [1]): up to 2 h | Time DspB retained its activity in the presence of the antimicrobial, biofilm dispersal assay (S. epidermidis biofilm): up to 2 h | Time DspB was active in the presence of the antimicrobial, enzymatic assay (DspB [2]): ≤ 2 h | Time DspB was active in the presence of the antimicrobial, enzymatic assay (DspB [2]; listed as polymyxin B sulfate): up to 2 h

CO[C@H]1/C=C/O[C@@]2(C)Oc3c(C)c(O)c4c(O)c(c(/C=N/N5CCN(C)CC5)c(O)c4c3C2=O)NC(=O)/C(C)=C\C=C\[C@H](C)[C@H](O)[C@@H](C)[C@@H](O)[C@@H](C)[C@H](OC(C)=O)[C@@H]1C [rifampin]
Time DspB was active in the presence of the antimicrobial, enzymatic assay (DspB [1]): up to 2 h

Cc1ccc(C(C)C)cc1O [Carvacrol]
Time DspB was active in the presence of the antimicrobial, enzymatic assay (DspB [1]): up to 2 h | Time DspB retained its activity in the presence of the antimicrobial, biofilm dispersal assay (S. epidermidis biofilm): up to 2 h | Time DspB was active in the presence of the antimicrobial, enzymatic assay (DspB [2]): up to 2 h

CN[C@H](CC(C)C)C(=O)N[C@H]1C(=O)N[C@@H](CC(N)=O)C(=O)N[C@H]2C(=O)N[C@H]3C(=O)N[C@H](C(=O)N[C@H](C(=O)O)c4cc(O)cc(O)c4-c4cc3ccc4O)[C@H](O)c3ccc(c(Cl)c3)Oc3cc2cc(c3O[C@@H]2O[C@H](CO)[C@@H](O)[C@H](O)[C@H]2O[C@H]2C[C@](C)(N)[C@H](O)[C@H](C)O2)Oc2ccc(cc2Cl)[C@H]1O [Vancomycin, vancomycin]
Time DspB was active in the presence of the antimicrobial, enzymatic assay (DspB [1]): up to 2 h

O=C/C=C/c1ccccc1 [Cinnamaldehyde]
Time DspB was active in the presence of the antimicrobial, enzymatic assay (DspB [1]): up to 2 h | Time DspB retained its activity in the presence of the antimicrobial, biofilm dispersal assay (S. epidermidis biofilm): up to 2 h | Time DspB was active in the presence of the antimicrobial, enzymatic assay (DspB [2]): up to 2 h
